PubChem BioAssay AID1671195, Yale University – 2021

- Test: 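Knockdowns that increase or decrease uptake of fluorescent LDL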 (primary screen)
- Cell system: human Huh7 hepatoma cells
- Reagents: siRNA pool against human genes, 18 nM
- Time to read-out: about 2 to 2.5 days of knockdown, then 8 h LDL uptake
- Challenge: DiI-labelled LDL at 30 µg/ml for 8 h, in lipoprotein-deficient serum medium
- Detection: 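Per-cell DiI-LDL intensity by automated imaging; well means scaled to the plate median and given as a robust z-score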
- Reading the numbers: robust z-score: higher = more LDL uptake after knockdown
- Rule for the call: 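Active when two or more replicates show a robust z-score above 2 or below -2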
The deposit covers about 22,000 reagents; this is a part drawn at random. In the full data, about 1,510 (6.9%) were called active. 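Active includes knockdowns raising or lowering LDL uptake; positive z-scores mean more uptake, negative mean less.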

gene knocked down | robust z-score, replicate 1 | robust z-score, replicate 2 | robust z-score, replicate 3 | Outcome
LINC00891 (long independently transcribed non-coding RNA 891) | 1.29 | 1.17 | 1.04 | inactive
SYNGR1 (synaptogyrin 1) | -1.35 | -1.03 | -1.39 | inactive
LOC441770 (retired record) | -0.289 | 0.148 | 0.368 | inactive
LOC387826 (retired record) | 0.17 | 0.0112 | 0.414 | inactive
IFNAR1 (interferon alpha and beta receptor subunit 1) | 0.607 | 0.554 | 0.379 | inactive
CCDC70 (coiled-coil domain containing 70) | 0.0422 | -0.212 | 0.163 | inactive
LOC401112 (retired record) | -1.71 | -1.7 | -1.81 | inactive
NMD3 (NMD3 ribosome export adaptor) | 2.23 | 1.25 | -1.66 | inactive
BMP5 (bone morphogenetic protein 5) | -0.532 | -1.84 | -0.17 | inactive
RPL38 (ribosomal protein L38) | -1.04 | -1.07 | -0.74 | inactive
LOC440833 (retired record) | -1.47 | -1.68 | -1.39 | inactive
HSD3B2 | -1.42 | -1.87 | -1.3 | inactive
CFAP61 (cilia and flagella associated protein 61) | -0.441 | 0.0365 | 1.27 | inactive
DPH1 (diphthamide biosynthesis 1) | 1.83 | -0.556 | 1.4 | inactive
MPP3 (MAGUK p55 scaffold protein 3) | 1.13 | 0.774 | -0.161 | inactive
PIGA (phosphatidylinositol glycan anchor biosynthesis class A) | -1.31 | -1.52 | -1.58 | inactive
P2RY12 (purinergic receptor P2Y12) | 0.72 | 1.6 | 3.17 | inactive
TGM7 (transglutaminase 7) | -0.822 | -0.938 | -0.439 | inactive
TUBB3 (tubulin beta 3 class III) | -1.45 | -0.89 | -1.26 | inactive
ZCCHC24 (zinc finger CCHC-type containing 24) | 0.769 | 1.02 | 1.38 | inactive
TXLNA (taxilin alpha) | -0.995 | -1.07 | -1.03 | inactive
FLJ40194 | -0.699 | -0.333 | -0.0253 | inactive
MYL11 (myosin light chain 11) | -0.308 | -0.708 | -0.688 | inactive
DOCK11 (dedicator of cytokinesis 11) | 0.494 | 0.423 | 0.546 | inactive
LMCD1-AS1 (LMCD1 antisense RNA 1) | 0.28 | 0.0184 | -0.0716 | inactive
GTSE1 (G2 and S-phase expressed 1) | 1.27 | 2.6 | 1.89 | active
ZBTB45 (zinc finger and BTB domain containing 45) | 0.819 | 1.38 | 0.1 | inactive
PXN (paxillin) | 0.691 | 0.737 | 0.338 | inactive
FHL2 (four and a half LIM domains 2) | 4.93 | 3.93 | 4.91 | active
IFNLR1 (interferon lambda receptor 1) | 0.544 | -0.332 | 0.024 | inactive
LOC441352 (retired record) | -0.161 | -0.568 | -0.234 | inactive
BHLHA15 (basic helix-loop-helix family member a15) | -0.492 | -0.346 | -0.539 | inactive
HNRNPH1 (heterogeneous nuclear ribonucleoprotein H1) | -0.448 | -0.366 | -0.582 | inactive
SCN2B (sodium voltage-gated channel beta subunit 2) | -0.374 | -0.445 | -0.0618 | inactive

Reprinted from the entries so far (10 entries):
gene knocked down | robust z-score, replicate 1 | robust z-score, replicate 2 | robust z-score, replicate 3 | Outcome
MPP3 (MAGUK p55 scaffold protein 3) | 1.13 | 0.774 | -0.161 | inactive
PIGA (phosphatidylinositol glycan anchor biosynthesis class A) | -1.31 | -1.52 | -1.58 | inactive
P2RY12 (purinergic receptor P2Y12) | 0.72 | 1.6 | 3.17 | inactive
TGM7 (transglutaminase 7) | -0.822 | -0.938 | -0.439 | inactive
TUBB3 (tubulin beta 3 class III) | -1.45 | -0.89 | -1.26 | inactive
ZCCHC24 (zinc finger CCHC-type containing 24) | 0.769 | 1.02 | 1.38 | inactive
TXLNA (taxilin alpha) | -0.995 | -1.07 | -1.03 | inactive
FLJ40194 | -0.699 | -0.333 | -0.0253 | inactive
MYL11 (myosin light chain 11) | -0.308 | -0.708 | -0.688 | inactive
DOCK11 (dedicator of cytokinesis 11) | 0.494 | 0.423 | 0.546 | inactive

Continued:
gene knocked down | robust z-score, replicate 1 | robust z-score, replicate 2 | robust z-score, replicate 3 | Outcome
TLE5 (TLE family member 5, transcriptional modulator) | 0.493 | 0.723 | 0.592 | inactive
LOC399786 (retired record) | -0.857 | -0.507 | -0.868 | inactive
LOC387701 (retired record) | -1.29 | -0.0844 | -1.55 | inactive
SLC38A1 | 1.38 | 1.48 | 1.29 | inactive
ALG2 (ALG2 alpha-1,3/1,6-mannosyltransferase) | -1.13 | -0.406 | -1.03 | inactive
PIAS1 (protein inhibitor of activated STAT 1) | 1.48 | 1.35 | 1.33 | inactive
CSTPP1 | -0.0062 | -0.412 | -0.313 | inactive
ZNF619 (zinc finger protein 619) | 0.946 | 1.56 | 1.25 | inactive
MAGEB18 (MAGE family member B18) | -1.14 | -0.992 | -0.858 | inactive
DNASE2 (deoxyribonuclease 2, lysosomal) | 0.67 | 0.713 | 0.484 | inactive
IL1RN (interleukin 1 receptor antagonist) | 0.743 | 0.664 | 0.285 | inactive
BICD2 (BICD cargo adaptor 2) | 0.735 | 0.488 | 1.1 | inactive
POMC (proopiomelanocortin) | -1.37 | 1.33 | -1.36 | inactive
PYCR3 (pyrroline-5-carboxylate reductase 3) | 4.12 | 3.02 | 5.41 | active
CCDC51 (coiled-coil domain containing 51) | 0.132 | -0.0964 | -0.157 | inactive
ARSF (arylsulfatase F) | 2.79 | 1.6 | 1.45 | inactive
TEX28 (testis expressed 28) | 0.127 | -0.352 | -0.416 | inactive
ANXA3 (annexin A3) | 2.6 | 1.2 | 1.65 | inactive
ARF6 (ARF GTPase 6) | -0.105 | 1.99 | 1.26 | inactive
LINC02692 (long independently transcribed non-coding RNA 2692) | -0.62 | -1.16 | -0.668 | inactive
GCH1 (GTP cyclohydrolase 1) | 1.46 | 1.04 | 1.75 | inactive
LOC132870 (retired record) | -0.0454 | -0.848 | -0.539 | inactive
ZNF652 (zinc finger protein 652) | -2.05 | -1.15 | -0.493 | inactive
KANK3 (KN motif and ankyrin repeat domains 3) | -1.15 | -1.07 | -1.09 | inactive
LINC00908 (long independently transcribed non-coding RNA 908) | -1.01 | -1.16 | -1.1 | inactive
DDX25 (DEAD-box helicase 25) | -0.242 | -1.14 | -0.536 | inactive
GATD3 (glutamine amidotransferase class 1 domain containing 3) | -1.4 | 0.158 | 1.66 | inactive
HCAR1 (hydroxycarboxylic acid receptor 1) | 0.253 | -1.26 | -0.62 | inactive
PFKL (phosphofructokinase, liver type) | -0.666 | -0.931 | -0.2 | inactive
OVOS2P (ovostatin 2, pseudogene) | -0.217 | 0.651 | 0.663 | inactive
MAGEA10 (MAGE family member A10) | 1.06 | 0.337 | 0.358 | inactive
CGN (cingulin) | -0.597 | -0.298 | -0.167 | inactive
LOC441816 (retired record) | -0.0839 | 0.0251 | -0.0217 | inactive
CSNK1E (casein kinase 1 epsilon) | -0.226 | 0.875 | -0.0705 | inactive
